Measured values reported in article PMC5512060.
No constants are given. Whether binding was seen depends on the method and setting. In cells and extracts the contact can be indirect. Some results given as binding are weak or reduced against the parent protein; the word gives no strength. Where a sequence is shown, tags or fusion partners need not be part of it. Each block holds one binder with its values, some of them ahead of it.

Sequences of proteins named here, by UniProt entry; tags and fusion partners are left off. A change or cut given only in a name is not applied to a line headed by its entry.
UniProt Q15286: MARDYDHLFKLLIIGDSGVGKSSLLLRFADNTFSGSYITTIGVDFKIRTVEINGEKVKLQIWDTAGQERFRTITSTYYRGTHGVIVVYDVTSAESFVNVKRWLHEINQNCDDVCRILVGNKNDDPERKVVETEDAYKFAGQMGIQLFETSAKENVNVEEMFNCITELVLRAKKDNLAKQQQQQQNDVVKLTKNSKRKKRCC

Columns and labels:
[1] = target: Rab35(Q67A)-Myc (UniProt Q15286); experiment: co-IP; HEK-293T co-transfected; cells treated with 10 mM NaF and 100 uM AlCl3 for 30 min at 37 °C, lysed in RabGAP buffer (1% Brij 97, 1% Triton X-100, 150 mM NaCl, 10 mM Tris/HCl pH 7.5, with DTSSP); anti-Myc antibodies on Dynabeads, 2 h, 4 °C; isotype control
[2] = target: Rab35-WT–Myc (UniProt Q15286); experiment: co-IP; HEK-293T expressing ACAP2–GFP and Rab35-WT–Myc; IP buffer 25 mM Tris/HCl pH 7.4, 150 mM NaCl, 1 mM EDTA, 1% Nonidet P-40, 5% glycerol; anti-c-Myc antibodies on Dynabeads, 2 h, 4 °C; isotype control
[3] = target: Rab35-WT–GST (UniProt Q15286); experiment: pull-down; GSH beads coupled to 3 ug GST-Rab35 proteins or GST alone, incubated 3–4 h at 4 °C with HEK-293T lysates containing ACAP2–GFP; immunoblot with anti-GFP; only the target purified
[4] = target: Rab35(Q67A)–GST (UniProt Q15286); experiment: as above

binding [1]: binds
B1: TBC1D10A(R160A)-GFP (enzyme, UniProt Q9BXI6 1-508)
chain: MAKSNGENGPRAPAAGESLSGTRESLAQGPDAATTDELSSLGSDSEANGFAERRIDKFGFIVGSQGAEGALEEVPLEVLRQRESKWLDMLNNWDKWMAKKHKKIRLRCQKGIPPSLRGRAWQYLSGGKVKLQQNPGKFDELDMSPGDPKWLDVIERDLHAQFPFHEMFVSRGGHGQQDLFRVLKAYTLYRPEEGYCQAQAPIAAVLLMHMPAEQAFWCLVQICEKYLPGYYSEKLEAIQLDGEILFSLLQKVSPVAHKHLSRQKIDPLLYMTEWFMCAFSRTLPWSSVLRVWDMFFCEGVKIIFRVGLVLLKHALGSPEKVKACQGQYETIERLRSLSPKIMQEAFLVQEVVELPVTERQIEREHLIQLRRWQETRGELQCRSPPRLHGAKAILDAEPGPRPALQPSPSIRLPLDAPLPGSKAKPKPPKQAQKEQRKQMKGRGQLEKPPAPNQAMVVAAAGDACPPQHVPPKDSAPKDSAPQDLAPQVSAHHRSQESLTSQESEDTYL

binding [2]: binds | binding [3]: binds | binding [4]: binds
B2: ACAP2–GFP (protein, UniProt Q15057 1-778)
chain: MKMTVDFEECLKDSPRFRAALEEVEGDVAELELKLDKLVKLCIAMIDTGKAFCVANKQFMNGIRDLAQYSSNDAVVETSLTKFSDSLQEMINFHTILFDQTQRSIKAQLQNFVKEDLRKFKDAKKQFEKVSEEKENALVKNAQVQRNKQHEVEEATNILTATRKCFRHIALDYVLQINVLQSKRRSEILKSMLSFMYAHLAFFHQGYDLFSELGPYMKDLGAQLDRLVVDAAKEKREMEQKHSTIQQKDFSSDDSKLEYNVDAANGIVMEGYLFKRASNAFKTWNRRWFSIQNNQLVYQKKFKDNPTVVVEDLRLCTVKHCEDIERRFCFEVVSPTKSCMLQADSEKLRQAWIKAVQTSIATAYREKGDESEKLDKKSSPSTGSLDSGNESKEKLLKGESALQRVQCIPGNASCCDCGLADPRWASINLGITLCIECSGIHRSLGVHFSKVRSLTLDTWEPELLKLMCELGNDVINRVYEANVEKMGIKKPQPGQRQEKEAYIRAKYVERKFVDKYSISLSPPEQQKKFVSKSSEEKRLSISKFGPGDQVRASAQSSVRSNDSGIQQSSDDGRESLPSTVSANSLYEPEGERQDSSMFLDSKHLNPGLQLYRASYEKNLPKMAEALAHGADVNWANSEENKATPLIQAVLGGSLVTCEFLLQNGANVNQRDVQGRGPLHHATVLGHTGQVCLFLKRGANQHATDEEGKDPLSIAVEAANADIVTLLRLARMNEEMRESEGLYGQPGDETYQDIFRDFSQMASNNPEKLNRFQQDSQKF
